The other results are listed elsewhere or left out. Further columns of the screen follow, without active or inactive calls. Compounds called inactive in the main read-out are mostly missing here.
Experiment: hepatocyte lipid droplet accumulation inhibitors, confirmation, imaging, AML12 mouse hepatocytes, single concentration, high-content (AID 463183);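 note: cells counted after overnight compound exposure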
Details: BODIPY lipid droplet imaging, measured here: cell count, cytotoxicity, at 5.2 µM, droplets induced with 100 µM oleic acid

| SMILES | cell count [cells] |
| --- | --- |
| CC(C)(C)c1cc(NC(=O)Nc2ccc(Cl)cc2Cl)no1 | 1660 |
| CCOc1ccc(CCNC(=O)c2ccc3ccccc3n2)cc1OCC | 1630 |
| COc1ccc(C2CC(c3cccs3)=NN2C(=O)c2ccc(Br)o2)cc1 (stereo not drawn) | 1530 |
| CCOc1ccc(CCNC(=O)c2cc3sccc3n2CC)cc1OCC | 1600 |
| CCOC(=O)c1ccc(S(=O)(=O)Nc2ccc(N3CCOCC3)cc2)cc1 | 1620 |
| COc1ccc(/C=C(\NC(=O)c2cccs2)C(=O)Nc2cccc3ccccc23)cc1OC | 1560 |
| COc1ccc(-n2c(=O)c3ccccc3n(CC(=O)Nc3cc(C)on3)c2=O)cc1OC | 1630 |
| COc1ccc(C(=O)Nc2sc3c(c2C(=O)NCc2ccco2)CCCC3)cc1OC | 1580 |
| Fc1ccc(-c2cnn3c(-c4cccs4)ccnc23)cc1 | 1480 |
| CN(C1=C(NC(=O)c2ccc(Cl)cc2)C(=O)c2ccccc2C1=O)c1ccccc1 | 1580 |
| COc1ccc(NC(=O)Cc2c(Sc3ccccc3)c3ccccc3n2C)cc1 | 1610 |
| Cc1nc2ccccc2nc(=O)c1NNc1ccccc1 | 1230 |
| O=c1[nH]c(CSc2nnc(-c3ccccc3)n2-c2ccccc2)nc2ccccc12 | 1640 |
| CCCCOc1ccccc1C(=O)N(Cc1ccco1)C1CCS(=O)(=O)C1 (stereo not drawn) | 1580 |
| O=c1[nH]cnc2sc3c(c12)CCN(Cc1ccccc1)C3 | 1530 |
| COc1ccc(NC(=O)c2sccc2C)cn1 | 1630 |
| COc1ccc(/C=C/C(=O)NCC2COc3ccccc3O2)c(OC)c1 (stereo not drawn) | 1600 |
| Cc1cc(N2CCN(C)CC2)n2nc(-c3ccc(Cl)cc3)nc2n1 | 1550 |

Quoted at random: two compounds from above, in no set order.

| SMILES | cell count [cells] |
| --- | --- |
| CCCCOc1ccccc1C(=O)N(Cc1ccco1)C1CCS(=O)(=O)C1 (stereo not drawn) | 1580 |
| COc1ccc(/C=C/C(=O)NCC2COc3ccccc3O2)c(OC)c1 (stereo not drawn) | 1600 |

— PubChem BioAssay AID463183 (Sanford-Burnham Center for Chemical Genomics, 2010)
